# Results taken from the supplement of paper PMC8728848.
# This is one part of the list.
# Legend:
# Assay in all cases: glycan array binding signal (z-score within array); higher = stronger binding
# Conditions in all cases: glycan notation: IUPAC condensed, linker removed
# [1] = target: Fuc(a1-2)Gal
# Outline: (§1)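 Negative Z-scores can be read as non-binding. The Z-score is calculated within each array and then averaged across arrays of one protein sequence at different concentrations or buffers and across linkers. Arrays, 3228 in all, were curated from the Consortium for Functional Glycomics database and kept only where the protein sequence was available.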
# [2] = target: Fuc(a1-2)Gal(b1-3)GalNAc
# Outline: as §1
# [3] = target: Fuc(a1-2)Gal(b1-3)GalNAc(a1-3)[Fuc(a1-2)]Gal(b1-4)Glc
# Outline: as §1
# [4] = target: Fuc(a1-2)Gal(b1-3)GalNAc(a1-3)[Fuc(a1-2)]Gal(b1-4)GlcNAc
# Outline: as §1
# [5] = target: Fuc(a1-2)Gal(b1-3)GalNAc(b1-3)Gal
# Outline: as §1
# [6] = target: Fuc(a1-2)Gal(b1-3)GalNAc(b1-3)Gal(a1-4)Gal(b1-4)Glc
# Outline: as §1
# [7] = target: Fuc(a1-2)Gal(b1-3)GalNAc(b1-4)[Neu5Ac(a2-3)]Gal(b1-4)Glc
# Outline: as §1
# [8] = target: Fuc(a1-2)Gal(b1-3)GlcNAc
# Outline: as §1
# [9] = target: Fuc(a1-2)Gal(b1-3)GlcNAc(b1-2)Man(a1-3)[Fuc(a1-2)Gal(b1-3)GlcNAc(b1-2)Man(a1-6)]Man(b1-4)GlcNAc(b1-4)GlcNAc
# Outline: as §1
# [10] = target: Fuc(a1-2)Gal(b1-3)GlcNAc(b1-2)Man(a1-3)[Fuc(a1-2)Gal(b1-3)GlcNAc(b1-2)Man(a1-6)]Man(b1-4)GlcNAc(b1-4)[Fuc(a1-6)]GlcNAc
# Outline: as §1
# [11] = target: Fuc(a1-2)Gal(b1-3)GlcNAc(b1-3)Gal(b1-4)Glc
# Outline: as §1
# [12] = target: Fuc(a1-2)Gal(b1-3)GlcNAc(b1-3)GalNAc
# Outline: as §1
# [13] = target: Fuc(a1-2)Gal(b1-3)GlcNAc(b1-3)[Fuc(a1-2)Gal(b1-3)GlcNAc(b1-6)]GalNAc
# Outline: as §1
# [14] = target: Fuc(a1-2)Gal(b1-3)GlcNAc(b1-3)[Gal(b1-4)GlcNAc(b1-6)]Gal(b1-4)Glc
# Outline: as §1
# [15] = target: Fuc(a1-2)Gal(b1-3)GlcNAc(b1-3)[Neu5Ac(a2-6)Gal(b1-4)GlcNAc(b1-6)]Gal(b1-4)Glc
# Outline: as §1
# [16] = target: Fuc(a1-2)Gal(b1-3)GlcNAc6S
# Outline: as §1
# [17] = target: Fuc(a1-2)Gal(b1-3)[Fuc(a1-4)]GlcNAc
# Outline: as §1
# [18] = target: Fuc(a1-2)Gal(b1-3)[Fuc(a1-4)]GlcNAc(b1-2)Man(a1-3)[Fuc(a1-2)Gal(b1-3)[Fuc(a1-4)]GlcNAc(b1-2)Man(a1-3)]Man(b1-4)GlcNAc(b1-4)GlcNAc
# Outline: as §1
# [19] = target: Fuc(a1-2)Gal(b1-3)[Fuc(a1-4)]GlcNAc(b1-2)Man(a1-3)[Fuc(a1-2)Gal(b1-3)[Fuc(a1-4)]GlcNAc(b1-2)Man(a1-6)]Man(b1-4)GlcNAc(b1-4)[Fuc(a1-6)]GlcNAc(b1-4)[Fuc(a1-6)]GlcNAc
# Outline: as §1
# [20] = target: Fuc(a1-2)Gal(b1-3)[Fuc(a1-4)]GlcNAc(b1-3)[Fuc(a1-3)[Gal(b1-4)]GlcNAc(b1-6)]Gal(b1-4)Glc
# Outline: as §1
# [21] = target: Fuc(a1-2)Gal(b1-3)[Fuc(a1-4)]GlcNAc(b1-3)[Gal(b1-4)GlcNAc(b1-6)]Gal(b1-4)Glc
# Outline: as §1
# [22] = target: Fuc(a1-2)Gal(b1-4)Glc
# Outline: as §1
# [23] = target: Fuc(a1-2)Gal(b1-4)Glc6S
# Outline: as §1
# [24] = target: Fuc(a1-2)Gal(b1-4)GlcNAc
# Outline: as §1
# [25] = target: Fuc(a1-2)Gal(b1-4)GlcNAc(b1-2)Man
# Outline: as §1
# [26] = target: Fuc(a1-2)Gal(b1-4)GlcNAc(b1-2)Man(a1-3)[Fuc(a1-2)Gal(b1-4)GlcNAc(b1-2)Man(a1-6)]Man(b1-4)GlcNAc(b1-4)GlcNAc
# Outline: as §1
# [27] = target: Fuc(a1-2)Gal(b1-4)GlcNAc(b1-2)Man(a1-3)[Fuc(a1-2)Gal(b1-4)GlcNAc(b1-2)Man(a1-6)]Man(b1-4)GlcNAc(b1-4)[Fuc(a1-6)]GlcNAc
# Outline: as §1
# [28] = target: Fuc(a1-2)Gal(b1-4)GlcNAc(b1-2)[Fuc(a1-2)Gal(b1-4)GlcNAc(b1-4)]Man(a1-3)[Fuc(a1-2)Gal(b1-4)GlcNAc(b1-2)Man(a1-6)]Man(b1-4)GlcNAc(b1-4)GlcNAc
# Outline: as §1
# [29] = target: Fuc(a1-2)Gal(b1-4)GlcNAc(b1-3)Gal(b1-4)GlcNAc
# Outline: as §1
# [30] = target: Fuc(a1-2)Gal(b1-4)GlcNAc(b1-3)Gal(b1-4)GlcNAc(b1-2)Man(a1-3)[Fuc(a1-2)Gal(b1-4)GlcNAc(b1-3)Gal(b1-4)GlcNAc(b1-2)Man(a1-6)]Man(b1-4)GlcNAc(b1-4)GlcNAc
# Outline: as §1
binder,measurement,setting,value
B936 (Bifidobacterium sp) (protein) MKNWKKAIALVASAAALVSVAACGPSNAGGSSDSGKKTVGFVAVGPEGGFRTANEKDIQKAFEDAGFDLTYSPTQNNDQQKQIQAFNKFVNDEVDAIILSSTEDSGWDDSLKKAAEAEIPVFTVDRNVDVKDAEAKKAIVAHIGPSNVWCGEQAAEFVNKNFPDGANGFILEGPAGLSVVKDRGTGWGNKVASNVKVLESQSANWSTDEAKTVTAGLLDKYKSDNPQFIFAQNDEMGLGAAQAVDAAGLKGKVKIITIDGTKNALQALVDGDLSYVIEYNPIFGKETAQAVKDYLDGKTVEKDIEIESKTFDAASAKEALDNNTRAY,glycan array binding signal (z-score),[1],-0.846
same,glycan array binding signal (z-score),[2],0.49
same,glycan array binding signal (z-score),[3],-0.652
same,glycan array binding signal (z-score),[4],0.062
same,glycan array binding signal (z-score),[5],-0.444
same,glycan array binding signal (z-score),[6],-0.438
same,glycan array binding signal (z-score),[7],-0.493
same,glycan array binding signal (z-score),[8],-0.319
same,glycan array binding signal (z-score),[9],-0.888
same,glycan array binding signal (z-score),[10],-0.295
same,glycan array binding signal (z-score),[11],-0.482
same,glycan array binding signal (z-score),[12],0.88
same,glycan array binding signal (z-score),[13],0.197
same,glycan array binding signal (z-score),[14],-0.582
same,glycan array binding signal (z-score),[15],0.956
same,glycan array binding signal (z-score),[16],-0.871
same,glycan array binding signal (z-score),[17],-0.349
same,glycan array binding signal (z-score),[18],1.16
same,glycan array binding signal (z-score),[19],0.583
same,glycan array binding signal (z-score),[20],-0.075
same,glycan array binding signal (z-score),[21],-0.594
same,glycan array binding signal (z-score),[22],0.21
same,glycan array binding signal (z-score),[23],0.842
same,glycan array binding signal (z-score),[24],-0.459
same,glycan array binding signal (z-score),[25],0.316
same,glycan array binding signal (z-score),[26],0.486
same,glycan array binding signal (z-score),[27],0.957
same,glycan array binding signal (z-score),[28],1.25
same,glycan array binding signal (z-score),[29],-0.114
same,glycan array binding signal (z-score),[30],0.417

# 2 entries picked at random from the list so far, as already listed:
binder,measurement,setting,value
B936 (Bifidobacterium sp) (protein) MKNWKKAIALVASAAALVSVAACGPSNAGGSSDSGKKTVGFVAVGPEGGFRTANEKDIQKAFEDAGFDLTYSPTQNNDQQKQIQAFNKFVNDEVDAIILSSTEDSGWDDSLKKAAEAEIPVFTVDRNVDVKDAEAKKAIVAHIGPSNVWCGEQAAEFVNKNFPDGANGFILEGPAGLSVVKDRGTGWGNKVASNVKVLESQSANWSTDEAKTVTAGLLDKYKSDNPQFIFAQNDEMGLGAAQAVDAAGLKGKVKIITIDGTKNALQALVDGDLSYVIEYNPIFGKETAQAVKDYLDGKTVEKDIEIESKTFDAASAKEALDNNTRAY,glycan array binding signal (z-score),[7],-0.493
same,glycan array binding signal (z-score),[29],-0.114
